Measurements from article doi:10.1101/2022.10.27.514150.

Target: T1, ΔNp73α-TAP (UniProt O15350)
T1 sequence: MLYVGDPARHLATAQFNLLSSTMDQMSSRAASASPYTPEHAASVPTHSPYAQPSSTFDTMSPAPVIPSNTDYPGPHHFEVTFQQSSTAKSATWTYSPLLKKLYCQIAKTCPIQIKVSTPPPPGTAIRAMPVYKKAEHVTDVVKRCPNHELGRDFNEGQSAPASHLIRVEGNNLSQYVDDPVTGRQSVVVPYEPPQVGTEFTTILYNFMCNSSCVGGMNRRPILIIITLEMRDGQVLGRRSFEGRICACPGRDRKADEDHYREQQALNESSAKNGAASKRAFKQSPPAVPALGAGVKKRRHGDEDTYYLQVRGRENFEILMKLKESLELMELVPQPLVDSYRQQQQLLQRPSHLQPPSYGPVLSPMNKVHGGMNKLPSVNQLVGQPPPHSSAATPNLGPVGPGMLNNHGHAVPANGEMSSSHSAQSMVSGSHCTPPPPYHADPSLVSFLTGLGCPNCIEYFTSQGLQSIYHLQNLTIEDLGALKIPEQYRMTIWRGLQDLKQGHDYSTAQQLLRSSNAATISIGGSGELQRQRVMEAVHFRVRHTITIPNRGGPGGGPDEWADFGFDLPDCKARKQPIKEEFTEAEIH
Test: affinity purification with mass spectrometry

binding: binds
B1: endogenous p63 (38HK) (protein, UniProt Q9H3D4 1-680)
chain: MNFETSRCATLQYCPDPYIQRFVETPAHFSWKESYYRSTMSQSTQTNEFLSPEVFQHIWDFLEQPICSVQPIDLNFVDEPSEDGATNKIEISMDCIRMQDSDLSDPMWPQYTNLGLLNSMDQQIQNGSSSTSPYNTDHAQNSVTAPSPYAQPSSTFDALSPSPAIPSNTDYPGPHSFDVSFQQSSTAKSATWTYSTELKKLYCQIAKTCPIQIKVMTPPPQGAVIRAMPVYKKAEHVTEVVKRCPNHELSREFNEGQIAPPSHLIRVEGNSHAQYVEDPITGRQSVLVPYEPPQVGTEFTTVLYNFMCNSSCVGGMNRRPILIIVTLETRDGQVLGRRCFEARICACPGRDRKADEDSIRKQQVSDSTKNGDGTKRPFRQNTHGIQMTSIKKRRSPDDELLYLPVRGRETYEMLLKIKESLELMQYLPQHTIETYRQQQQQQHQHLLQKQTSIQSPSSYGNSSPPLNKMNSMNKLPSVSQLINPQQRNALTPTTIPDGMGANIPMMGTHMPMAGDMNGLSPTQALPPPLSMPSTSHCTPPPPYPTDCSIVSFLARLGCSSCLDYFTTQGLTTIYQIEHYSMDDLASLKIPEQFRHAIWKGILDHRQLHEFSSPSHLLRTPSSASTVSVGSSETRGERVIDAVRFTLRQTISFPPRDEWNDFNFDMDARRNKQQRIKEEGE

Results are given in words; binding and its absence hold for the method and conditions named. Binding seen in cells or lysates may run through a third protein. These calls come from enrichment with a bait or labelling near it, and not all partners need be listed.
